Source: PubChem BioAssay AID540256 (National Center for Advancing Translational Sciences (NCATS), 2011)
“And” between values parts separate entries of the source, which are not always exact repeats. Equal values may be shown once. Among all 300,000 compounds or so, about 3,700 (1.2%) were called active. Inconclusive results, whose numbers are uncertain, are shown with a selection of clear calls. Calls follow the shape of the full dose curve; tested in HEK293 cells. A potency beside an inconclusive call is a rough fit, not a confirmed value.

Assay: qHTS for Inhibitors of binding or entry into cells for Lassa Virus; also: nearly all actives have a fitted effect of over 50% in size
Conditions: Lassa virus pseudotype entry inhibition, cell reporter; series mostly up to 37.9 µM
Potency is read from the fitted curve at half-maximal effect.

SMILES | Potency
Cc1cccc(-c2nnc(SC(C)C(=O)N3CCOCC3)o2)c1 (stereo not drawn) | inactive
c1ccc2sc(NC3=NCN(CC4CCCO4)CN3)nc2c1 (stereo not drawn) | inconclusive: 7.94 µM [activator, partial curve]
COc1ccc2nc(N3C(=O)C(O)=C(C(=O)c4ccco4)C3c3ccco3)sc2c1 (stereo not drawn) | inactive
Cc1cc(C)c2c(N)c(C(=O)Nc3ccccc3C(F)(F)F)sc2n1 | inactive
COc1ccccc1C/C(N)=N/OC(=O)c1cccc([N+](=O)[O-])c1C | inconclusive: 35.5 µM [inhibitor, single point]
O=C(NCCC1CCCCN1S(=O)(=O)c1cccs1)C(=O)Nc1cccc(F)c1 (stereo not drawn) | inconclusive: 17.8 µM [inhibitor, partial curve, poor fit]
COC(=O)[C@H](CC(C)C)NC(=O)Nc1ccc(F)cc1 | inconclusive: 35.5 µM [activator, single point]
Nc1ccc(-c2c3ccc(=O)cc-3oc3cc(O)ccc23)cc1C(=O)O | inactive
CCN(CC)c1ccc(C(=O)OCC(=O)NC2CCCCC2C)cc1 (stereo not drawn) | inactive
N#CC1=C(N)N2C(=C(C#N)C13CCN(Cc1ccccc1)CC3)Nc1ccccc12 | inactive
COc1cccc(NC(=O)CN(C)C(=O)c2ccc(OCC3CCCO3)cc2)c1 (stereo not drawn) | inconclusive: 5.62 µM [activator, single point]
c1ccc2[nH]c(CSc3nnc(-c4ccncc4)o3)nc2c1 | inactive
COc1ccc(-c2cc(C(=O)Nc3cnn(Cc4ccc(F)cc4)c3)no2)cc1OC | inconclusive: 5.62 µM [inhibitor, single point]
CS(=O)(=O)N1CCc2cc(NC(=O)c3ccc(Cl)cc3Cl)ccc21 | inconclusive: 35.5 µM [inhibitor, single point]
CCOC(=O)N1CCC(NCCNC(=O)c2ccccc2Cl)CC1 | inactive
Cc1cccc(NC(=O)c2cc(-c3cc(C)ccc3O)n[nH]2)c1 | inconclusive: 3.16 µM [activator, partial curve]
CCOC(=O)C(C)On1c(-c2ccc(Cl)cc2)nc2ccc([N+](=O)[O-])cc21 (stereo not drawn) | inactive
CC(=O)c1ccc(NC(=O)COC(=O)Cn2cnc3ccccc32)cc1 | inconclusive: 35.5 µM [inhibitor, single point]
CCC(=O)OC1(C)C(=O)C=C2C=C(c3ccc(C#N)cc3)OC=C2C1=O (stereo not drawn) | inconclusive: 0.299 µM [inhibitor, full curve, poor fit]
Cc1oc2c(c1C(=O)c1ccccc1)C(=O)C(=O)c1ccccc1-2 | active: 10 µM
Cn1ncc(N=Cc2ccc([N+](=O)[O-])cc2)c1C(=O)Nc1ccccc1 | inconclusive: 7.3 µM [inhibitor, partial curve]
O=C(NCc1ccc(Cl)cc1Cl)c1cccc(N2CCCS2(=O)=O)c1 | inactive
Cc1cccc(N2CCN(C(=S)c3ccc(-c4ccccc4[N+](=O)[O-])o3)CC2)c1 | inconclusive: 25.9 µM [inhibitor, single point]

SMILES | Potency
CCOC(=O)C1(CCCc2ccccc2)CCN(Cc2ccn[nH]2)CC1 | inconclusive: 35.5 µM [inhibitor, single point]
O=C(c1ccc(Cl)cc1)C(Cn1cncn1)C(Sc1ccccc1)c1ccccc1 (stereo not drawn) | inconclusive: 35.5 µM [inhibitor, single point]
CCCCOC(=O)c1ccc(NC(=S)NC(=O)c2c(Cl)cnn2CC)cc1 | inactive
O=[N+]([O-])c1ccc(/C=N/NC(=S)Nc2ccccc2F)o1 | inconclusive: 8.91 µM [activator, partial curve, poor fit]
O=C(CCNC(=O)c1ccccc1Cl)Nc1ccc2c(c1)OCO2 | inactive
CCOc1cc(/C=C/c2nc3ccccc3s2)ccc1OCC(=O)N1CCOCC1 | inconclusive: 29.1 µM [inhibitor, single point]
CCCOc1ccc(CNC(=O)c2cc3ccccn3n2)cc1 | inconclusive: 11.2 µM [inhibitor, partial curve, poor fit]
CC(=NNC(=O)c1ccncc1)c1ccccc1Cl | inactive
O=C(N/N=C/c1ccc([N+](=O)[O-])o1)c1cc(-c2ccncc2)nc2ccccc12 | inconclusive: 5.17 µM [inhibitor, partial curve]
CCOC(=O)c1c(C)[nH]c(C(=O)NNC(=O)c2ccccc2F)c1C | inconclusive: 1.26 µM [activator, single point]
CCC(C)c1ccc(OCC(=O)Nc2ccc(-c3nc4ncccc4o3)cc2)cc1 (stereo not drawn) | inactive
COc1ccc(-c2noc(CCC(=O)NCCN3CCN(c4ccccc4F)CC3)n2)cc1 | inconclusive: 14.1 µM [inhibitor, partial curve, poor fit]
CN(C(=O)c1nn(C)c2c1CS(=O)(=O)c1ccccc1-2)c1cccc(Cl)c1 | inactive
Cc1cccc2cc(CN(Cc3cccs3)C(=S)NCc3ccco3)c(=O)[nH]c12 | inconclusive: 35.5 µM [inhibitor, single point]
Cc1cccc(-c2nc(C#N)c(N3CCC(C)CC3)o2)c1 | inactive
Cc1cc([N+](=O)[O-])ccc1NCc1ccccc1[N+](=O)[O-] | inconclusive: 6.31 µM [inhibitor, single point]
CC(=O)Oc1ccc(/C=N/NC(=S)Nc2ccccc2)cc1 | inconclusive: 10 µM [inhibitor, partial curve, poor fit]
COc1cc2c(cc1OC)CN(C(C)C(=O)N1CCc3ccccc31)CC2 (stereo not drawn) | inconclusive: 11.2 µM [inhibitor, partial curve, poor fit]
Oc1ccc(-c2nc(-c3ccc(O)c(O)c3)cs2)cc1 | inconclusive: 6.31 µM [inhibitor, single point]
Cc1ccc(C)c(Cn2c(=O)n(CCCC(=O)NCc3ccc4c(c3)OCO4)c(=O)c3sccc32)c1 | inactive
O=C(CSCC(=O)N1CCOCC1)Nc1nc(-c2ccccc2)cs1 | inconclusive: 35.5 µM [activator, single point]
Cc1ccc(CNC(=O)Nc2ccccc2)c(C)c1 | inactive
CCC1CN(C(=O)Nc2cc(Cl)ccc2C(=O)OC)c2ccccc2S1 (stereo not drawn) | inconclusive: 6.31 µM [activator, partial curve, poor fit]

SMILES | Potency
Cc1c(C(=O)Nc2cccnc2Cl)oc2ccccc12 | inconclusive: 6.31 µM [activator, partial curve]
COc1cc(/C=C(/C#N)c2nc3ccccc3[nH]2)ccc1Oc1ncccc1[N+](=O)[O-] | inconclusive: 1.16 µM [inhibitor, full curve]
CCCCOc1ccc(C(=O)N/C(=C/C=C/c2ccccc2)C(=O)N2CCOCC2)cc1 | inconclusive: 20.6 µM [inhibitor, single point]
CCNC(=O)C(=O)Nc1ccc2c(c1)N(S(=O)(=O)c1cccs1)CCC2 | inconclusive: 35.5 µM [inhibitor, single point]
c1ccc2c(c1)CCN(c1ncnc3c1[nH]c1ccccc13)C2 | inconclusive: 8.2 µM [inhibitor, partial curve]
Cc1cc(NC(=S)N(CCN2CCCCC2)Cc2ccco2)ccc1Cl | inconclusive: 12.6 µM [inhibitor, single point]
CCCCN(CCCC)C(=O)c1cn(CC)c2cc(N3CCN(C)CC3)c(F)cc2c1=O | inactive
O=C(Nc1ccc(Br)cc1)c1cccc(S(=O)(=O)N2CCc3ccccc32)c1 | inconclusive: 7.08 µM [inhibitor, partial curve, poor fit]
CC12CCC(C(=O)N(NC(=O)c3cccnc3)C1=O)C2(C)C (stereo not drawn) | inactive
COc1ccc(NS(=O)(=O)c2cc(NC(=O)c3cccc(OCc4c(C)noc4C)c3)ccc2OC)cc1 | inconclusive: 4.11 µM [inhibitor, partial curve]
CCC(C(=O)Nc1ccc2c(c1)OCCO2)n1c(=O)[nH]c2ccccc2c1=O (stereo not drawn) | inactive
Cc1ccc(C(=O)NCCc2ccncc2)cc1 | inactive
O=C(CN1CCOCC1)N1CCCc2c1c(=O)oc1ccc(OCc3ccccc3)cc21 | inconclusive: 20.6 µM [inhibitor, single point]
Nc1ccc(O)cc1C(=O)OCC(=O)c1ccc(C2CCCCC2)cc1 | inconclusive: 0.651 µM [inhibitor, partial curve]
CCCOc1ccc(CSc2n[nH]c(C)n2)cc1 | inconclusive: 7.94 µM [inhibitor, partial curve, poor fit]
C=CC[C@](C)(O)c1ccccc1 | inconclusive: 0.75 µM [inhibitor, partial curve, poor fit]
COc1ccccc1CNC(=O)CCC1N=C2c3ccccc3N=C(SCC(=O)NCC3CCCO3)N2C1=O (stereo not drawn) | inconclusive: 2.82 µM [activator, partial curve, poor fit]
COc1ccc(-n2nc(C(=O)Nc3cccc(Cl)c3)c3c4ccccc4n(C)c3c2=O)cc1Cl | inconclusive: 35.5 µM [activator, single point]
CN(C(=O)COc1coc(CN2CCN(c3ccccc3)CC2)cc1=O)c1ccccc1 | inactive
Cc1ccc(N2C(=O)CSC23C(=O)N(CC(=O)Nc2ccccc2F)c2ccccc23)cc1C (stereo not drawn) | inactive
Cc1ccc(CNC(=O)c2ccc(CS(=O)(=O)c3ccccc3C)o2)cc1 | inconclusive: 22.4 µM [inhibitor, single point] and inconclusive: 5.62 µM [inhibitor, full curve, poor fit]
C=CCc1ccccc1OCCNCc1ccccc1 | inconclusive: 2.51 µM [inhibitor, full curve, poor fit]

Quoted at random: six compounds from above.
SMILES | Potency
O=C(Nc1ccc(Br)cc1)c1cccc(S(=O)(=O)N2CCc3ccccc32)c1 | inconclusive: 7.08 µM [inhibitor, partial curve, poor fit]
COc1ccc(NS(=O)(=O)c2cc(NC(=O)c3cccc(OCc4c(C)noc4C)c3)ccc2OC)cc1 | inconclusive: 4.11 µM [inhibitor, partial curve]
c1ccc2c(c1)CCN(c1ncnc3c1[nH]c1ccccc13)C2 | inconclusive: 8.2 µM [inhibitor, partial curve]
Cc1cc(NC(=S)N(CCN2CCCCC2)Cc2ccco2)ccc1Cl | inconclusive: 12.6 µM [inhibitor, single point]
C=CCc1ccccc1OCCNCc1ccccc1 | inconclusive: 2.51 µM [inhibitor, full curve, poor fit]
CCCOc1ccc(CSc2n[nH]c(C)n2)cc1 | inconclusive: 7.94 µM [inhibitor, partial curve, poor fit]
